Test results reported in patent publication EP2954896A1, “Small molecule inhibitors of the E3 Ligase Skp2 in depression and other diseases” (Max-Planck-Gesellschaft zur Förderung der Wissenschaften …, priority 2014, dated 2015).

Experiment: Chronic PAR treatment after chronic social defeat stress: physiological and neuroendocrine parameters
Format: in vivo, mice
From the text: Initially, wild-type and 51 KOmice were split into 2 x 2 groups (control WT, control FKBP51^-/-, defeat WT, defeat FKBP51^-/-) and subjected to the chronic stress procedure described below. After cessation of the stressor, groups were subdivided into vehicle-treated and paroxetine-treated animals, resulting in 8 groups (n = 7-13 per group). The treatment phase lasted for three weeks. The behavioral tests took place during the last week of the paroxetine treatment.
The CSDS paradigm lasted for 21 days. Briefly, the experimental mice were introduced into the home cage (45 cm x 25 cm) of a dominant resident mouse and defeated shortly after. When the defeat was achieved, the animals were separated by a wire mesh, preventing physical but allowing sensory contact for 24 h. Each day, stressed animals were defeated by another unfamiliar, dominant resident mouse in order to exclude a repeated encounter throughout the experiment. The daily defeat was performed between 11:00 and 16:00 h; varying starting times reduced the predictability of the stressor and therefore minimized a potential habituation effect. Experimental mice were always defeated by resident males during the entire stress period. Control mice were housed in their home cages during the course of experiment. Both stress and control animals were handled daily during the stress procedure; body weight for all mice was assessed at the beginning of the experiment, after the cessation of the stress period, and on the day of killing. Animals that underwent the stress procedure were subsequently single housed in standard cages.
Paroxetine (GlaxoSmithKline, Munich, Germany) was administered via drinking water.
The FST also served as an acute stressor in order to determine the stress response by measuring corticosterone plasma concentrations. After the FST, all mice were towel-dried and placed into their home cage to recover from the acute stressor. Blood samples were taken by tail cut. 30 min (stress response) and 90 min (stress recovery) after the onset of the FST. […]

Fc1ccc([C@@H]2CCNC[C@H]2COc2ccc3c(c2)OCO3)cc1 [PAR, paroxetine]
adrenal gland weight (51KO mice): reduced size | adrenal gland weight (WT mice): adrenal gland enlargement | basal corticosterone (three weeks after the stressor): decreased basal corticosterone especially in 51 KOmice
